Test results taken from article PMC11753365.

Protein sequences, listed by entry. Tags and fused reporters are not part of them.
UniProt Q9D752: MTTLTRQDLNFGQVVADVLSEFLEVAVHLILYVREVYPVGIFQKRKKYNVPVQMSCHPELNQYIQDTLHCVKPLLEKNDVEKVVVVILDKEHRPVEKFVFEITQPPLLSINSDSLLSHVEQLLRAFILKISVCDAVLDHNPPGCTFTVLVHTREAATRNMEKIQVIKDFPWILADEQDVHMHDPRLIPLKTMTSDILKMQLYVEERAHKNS

T1: TwinStrep–HA–SHLD1 (UniProt Q9D112)
T1 sequence: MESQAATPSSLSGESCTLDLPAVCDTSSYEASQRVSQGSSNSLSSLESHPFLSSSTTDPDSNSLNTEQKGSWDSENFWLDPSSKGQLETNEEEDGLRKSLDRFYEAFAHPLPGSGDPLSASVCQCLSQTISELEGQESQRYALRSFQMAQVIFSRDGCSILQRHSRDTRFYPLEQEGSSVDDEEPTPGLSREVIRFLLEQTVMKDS

T2: TwinStrep–HA–SHLD1, Q9D112
T2 chain: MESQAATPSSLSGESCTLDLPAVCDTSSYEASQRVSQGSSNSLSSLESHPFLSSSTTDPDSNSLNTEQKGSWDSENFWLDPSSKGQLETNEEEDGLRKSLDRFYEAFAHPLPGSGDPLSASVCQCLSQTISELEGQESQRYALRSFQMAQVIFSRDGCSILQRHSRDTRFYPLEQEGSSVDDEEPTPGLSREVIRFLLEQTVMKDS


Legend:
Test in all cases: affinity purification with mass spectrometry; TwinStrep–HA–SHLD1 or TwinStrep–HA–SHLD3 captured on MagStrep-XT beads from CH12-F3 lysates (benzonase lysis buffer, second incubation at 450 mM KCl), eluted with biotin, LC–MS/MS with label-free quantitation against a beads-only control; cells mock-treated or irradiated (10 Gy, 1 h recovery); two independent experiments
TwinStrep–HA–SHLD1 [1] = biological target: T1, TwinStrep–HA–SHLD1
TwinStrep–HA–SHLD1 [2] = biological target: T1, TwinStrep–HA–SHLD1; remark: listed apart in the source
TwinStrep–HA–SHLD3 = biological target: TwinStrep–HA–SHLD3
[3] = biological target: T2, TwinStrep–HA–SHLD1, Q9D112; details: remark: other sources report otherwise

binding (TwinStrep–HA–SHLD1 [2])	binding (TwinStrep–HA–SHLD3)	Molecule	further results
		Rev7 (MAD2L2) (from UniProt Q9D752 1-211)	binding (TwinStrep–HA–SHLD1 [1]): binds
binds		Shld3 (FLJ26957), endogenous (protein, UniProt Q9CZV2 1-255) MDSCRMTTEVILHYRPYENDPKQLAKIAENVIQDFPTHPLPRFIPWFPYDESKLPLKPERLPPVISEEAAESVKQYLAISEPGVKSQSYDCTVDLLEFQPSSKLQHFIQSHTVKEQTNAAHLDKNSGKEKQHKQRSWSVSLASSHCPEKIFPLSRKLQASLRTLHLHSFHRARWTLEYSVCNNQTLEDIWTKLNRLIRRDELPSCNATIQRQLGQIWVFCDIKCCEYVGNLLKERLSLIGKIDLFVHKYGVIFSM	
binds	binds	Ctc1 (protein, UniProt Q5SUQ9 1-1212) MAACRAQPPTSEQAWLEAAQTFIQETLCPAGKEVDKELTRSVIACVKETWLSQGENQDLTLPFSYSFVSVQSLKTHQRLPCCSHLSWSQSAYQAWTRGGRPGDGVLPREQLILLGTLVDLLGDSEQECRSGSLYVRDNTGTLDCELIDLDLSWLGHLFLFPSWSYLPSAKRNSLGEGHLELWGTPVPVFPLTVSPGPLIPIPVLYPEKASHLLRYRKKSSIKEINLAGKLVHLSALIITQNKRYFIMTLGELAQAGSQVSIIVQIPAQMVWHRVLRPGRAYVLTKLQVTKTRIHLSCIWTTIPSSTLKPLRPGYVQELELDLEFSKADLKPPPQPTSSKDSRGQEGLVRASKVLHYLGTVTAVLHESAGLYILDGQLILCLAYQKIHGLRRVIRPGVCLELRDVHLLQAVGGATTKPVLALCLHGTVRLQGFSCLKPLTLPSSKVYGASLYEQLVWKCQLGLPLYLWAAKTLEDLIYKLCPHVLRCHQFLKQPSPGKPSLGLQLLAPSWDVLIPPGSPMRHAYSEILEEPHNCPLQKYTPLQTPYSFPTMLALAEEGQHRAWATFDPKAMLPLPEASHLTSCQLNRHLAWSWVCLPSCVFQPAQVLLGVLVASSRKGCLELRDLRGSLPCIPLTESSQPLIDPNLVGCLVRVEKFQLVVEREVRSSFPSWEEMGMARFIQKKQARVYVQFYLADALILPVPRPTFGSEPSQTASSCPEGPHLGQSRLFLLSHKEALMKRNFCLLPGDSSQPAKPTLSFHVSGTWLCGTQRKEGSGWSPPESLAVESKDQKVFLIFLGSSVRWFPFLYPNQVYRLVASGPSQTPVFETEGSAGTSRRPLELADCGSCLTVQEEWTLELGSSQDIPNVLEVPRTLPESSLAQLLGDNSPDSLVSFSAEILSRILCEPPLALRRMKPGNAGAIKTGVKLTVALEMDDCEYPPHLDIYIEDPQLPPQIGLLPGARVHFSQLEKRISRSNIVYCCFRSSTSVQVLSFPPETKASAPLPHIYLAELLQGDRPPFQATTSCHIVYVLSLQILWVCAHCTSICPQGKCSRRDPSCPSQRAVSQANIRLLVEDGTAEATVICRNHLVARALGLSPSEWSSILEHARGPGRVALQFTGLGGQTESASKTHEPLTLLLRTLCTSPFVLRPVKLSFALERRPTDISPREPSRLQQFQCGELPLLTRVNPRLRLVCLSLQEPELPNPPQASAASS	
		Stn1, Q8K2X3 1-378 (protein) MPQPCLLMECESSPREEEIPPLFWGLDPVFLAFAKLYIKDILEMKESQQVPGTYFYNGHPIRRVDIMGAVISVKERETFYSYGVDDATGVINCVCWKKLSNAESSSDPAILSTARELSMTSQLKKLQETIEQKTRIGIGDIIRVRGSVRMFREEREICANIYYKVDDPVWNMQIARMLELPKLYQKVYDQPFRNPALQEEEALNNKDNLDLAGLTSLLSEKIKEFLQEKKMQSFYQQELETVESLQSLASRPVTHSTGSDQVELKDSGTSGVAQRVFKNALQLLQEKGLVFQRDSGSDKLYYVTTKDKDLQQKIYHIIKEDCQKPNHMEKGCHLLHILNCVHLNLRWDLSKAVLQRVLELLEDQSDIVSTADHYYAAF	binding [3]: binds
	binds	Shld1 (C20orf196), endogenous (protein, UniProt Q9D112 1-206) MESQAATPSSLSGESCTLDLPAVCDTSSYEASQRVSQGSSNSLSSLESHPFLSSSTTDPDSNSLNTEQKGSWDSENFWLDPSSKGQLETNEEEDGLRKSLDRFYEAFAHPLPGSGDPLSASVCQCLSQTISELEGQESQRYALRSFQMAQVIFSRDGCSILQRHSRDTRFYPLEQEGSSVDDEEPTPGLSREVIRFLLEQTVMKDS	
binds	binds	Shld2 (FAM35A) (protein, UniProt Q3UEN2 1-891) MSQGSQVHIFLGAPVAPLKTTVSQGTASLMSTANAWEKVRLFYKQHSLYLKAGDQEFKNLEDCQVPKGLGPPGLLSGDVLTTSVRRSAQVDEDFKHSASEAQSVKSQVNLSDMTSGQMCGLGDGVQHLPEEEKDQKLQCKNKKITDEQSKNQSDPCVRNFQRDLFALDLKCAAKLDLGCCTEQMSTGTKPEPTGHRERQSQESFSDTRCEPQSEGAVRKASDQRLSAEAEFLSVLTSSQRAFLAQGNDKGQDCINKSTVNMEAEPTGSQGVRRTEGDFSKPGGDFEEESENEQSQVYSLELFSPVCPESESSHSHINPGKNLENTSSQELFSNEENLPPNELCSSHPSTANRSWSCKDDSHHSKALSEVHQVSKKPRMDSNIREAAKAVPQRVMSELKDSKKISLIKNCDSKNQKYNCLVMVLTPCHVKEITIKSGPNSGSKVPLATIVVIDQSEIKKRVVLWRTAAFGALTVFLGDIILLTDVVLYEDQWIGETVLQSTFTSQLLNLGSYSYVQPEKYSNVIANVILQDLLTYVSTKHSYLKDLPQRQPQKMNTVEFVELEQLQPDILVHAVLRVVDVTVLTEALYSYRGQKQRKVVLTVEQAQGQHYVLVLWGPGAAWYTQLQRKKDSIWEFKYLFVQRNSILENLELHTTLWSSCECLFDDDTRAISFKTKFQKNTSSFVKISDLATHLEDKYSGVVLIKAKVSELVFSAAAAQKIALNARSTLQSIFSSLPSIVYAGCAHCGSELETDENRIYRQCLSCLPFVGKKIFYRPALMTIVDGRYNTCVHVGSKMMEQILLNISPDCLNRVIVPSSEVTYGMVASDLLHSLLAVSAEPCVLKIQSLFELDENSYPLQQDFSLLDFCPDSRKLWSPGLSLRAEGTGGIPGKE	

Molecule	binding (TwinStrep–HA–SHLD1 [2])	binding (TwinStrep–HA–SHLD3)	further results
Stn1 (protein, UniProt Q8K2X3 1-378) MPQPCLLMECESSPREEEIPPLFWGLDPVFLAFAKLYIKDILEMKESQQVPGTYFYNGHPIRRVDIMGAVISVKERETFYSYGVDDATGVINCVCWKKLSNAESSSDPAILSTARELSMTSQLKKLQETIEQKTRIGIGDIIRVRGSVRMFREEREICANIYYKVDDPVWNMQIARMLELPKLYQKVYDQPFRNPALQEEEALNNKDNLDLAGLTSLLSEKIKEFLQEKKMQSFYQQELETVESLQSLASRPVTHSTGSDQVELKDSGTSGVAQRVFKNALQLLQEKGLVFQRDSGSDKLYYVTTKDKDLQQKIYHIIKEDCQKPNHMEKGCHLLHILNCVHLNLRWDLSKAVLQRVLELLEDQSDIVSTADHYYAAF		binds	

Like-named read-outs stand apart in the source and are kept apart here. Results are given in words; binding and its absence hold for the method and conditions named. In cells and extracts the contact can be indirect. Here binding means that the protein was enriched with, or labelled near, the bait; the list need not be complete. For part of these data: Sequences can lack the tags named with a protein.
